Data: the RNAGym collection of RNA variant scans (doi:10.1126/science.aae0568)
Variants at the floor of the assay are shown more often than the library holds them.

B1: tRNA (parent)
chain: GUUCCGUUGGCGUAAUGGUAACGCGUCUCCCUCCUAAGGAGAAGACUGCGGGUUCGAGUCCCGUACGGAACG

Variants of: B1
Test: yeast fitness relative to wild type (ratio to wild type); higher = fitter; tRNA-Arg(CCU), competitive growth, 37 C, YPD
Outline: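 Amplicons of the tRNA-Arg(CCU) gene were sequenced, 100-nucleotide paired-end, from the start population and from each end population of a pooled yeast competition. The competition, in six parallel replicates, lasted 24 hours in YPD at 37°C. Fitness relative to wild type was calculated from changes in genotype frequencies. Genotypes had to have ≥ 100 starting reads, and estimates < 0.5 were set to 0.5.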

**Q.** With C30G A36U A70U as the variant, how does the yeast fitness read?
**A.** Its yeast fitness is ≤ 0.5.

**Q.** Which yeast fitness does the source give for C30G A37U C61U here?
**A.** Its yeast fitness is ≤ 0.5.

**Q.** For C30G A37U G38A A57C, which yeast fitness is on record?
**A.** Its yeast fitness is ≤ 0.5.

**Q.** For C30G A42G U47C, which yeast fitness is on record?
**A.** The yeast fitness was ≤ 0.5.

**Q.** For C30G A42U A45G G56A A69U, which yeast fitness is on record?
**A.** The yeast fitness was ≤ 0.5.

**Q.** With C30G C31A A36C A40G G50A as the variant, how does the yeast fitness read?
**A.** The yeast fitness was ≤ 0.5.

**Q.** For C30G C31G A43G A69U, which yeast fitness is on record?
**A.** Its yeast fitness is ≤ 0.5.

**Q.** For C30G C31G A65C, which yeast fitness is on record?
**A.** Its yeast fitness is ≤ 0.5.

**Q.** Which yeast fitness does the source give for C30G C31G U32C A37G here?
**A.** Its yeast fitness is ≤ 0.5.

**Q.** With C30G C33A C49A as the variant, how does the yeast fitness read?
**A.** Its yeast fitness is 0.618.

**Q.** Which yeast fitness does the source give for C30G C33G C49G A70C here?
**A.** Its yeast fitness is ≤ 0.5.

**Q.** Which yeast fitness does the source give for C30G C33G C62U A70C here?
**A.** Its yeast fitness is ≤ 0.5.

**Q.** For C30G C34G A37G A57U G63A, which yeast fitness is on record?
**A.** The yeast fitness was ≤ 0.5.

**Q.** Which yeast fitness does the source give for C30G C34G U35A G68A here?
**A.** The yeast fitness was ≤ 0.5.

**Q.** For C30G C46G G52C, which yeast fitness is on record?
**A.** Its yeast fitness is ≤ 0.5.

**Q.** With C30G C46G G52C G67A G68C as the variant, how does the yeast fitness read?
**A.** The yeast fitness was ≤ 0.5.

**Q.** With C30G C46G U53C as the variant, how does the yeast fitness read?
**A.** The yeast fitness was ≤ 0.5.

**Q.** For C30G C46U A65C, which yeast fitness is on record?
**A.** Its yeast fitness is ≤ 0.5.

**Q.** With C30G C46U G48A U54G as the variant, how does the yeast fitness read?
**A.** Its yeast fitness is ≤ 0.5.

**Q.** Which yeast fitness does the source give for C30G C49G A69U here?
**A.** The yeast fitness was ≤ 0.5.

**Q.** Which yeast fitness does the source give for C30G G44A G63A here?
**A.** The yeast fitness was ≤ 0.5.

**Q.** With C30G G52C G58U as the variant, how does the yeast fitness read?
**A.** Its yeast fitness is ≤ 0.5.

**Q.** Which yeast fitness does the source give for C30G G56C here?
**A.** The yeast fitness was ≤ 0.5.

**Q.** For C30G U35C C46U A65C, which yeast fitness is on record?
**A.** Its yeast fitness is ≤ 0.5.

**Q.** For C30G U47A G52C, which yeast fitness is on record?
**A.** Its yeast fitness is ≤ 0.5.

**Q.** For C30G U47G C49U A65G, which yeast fitness is on record?
**A.** Its yeast fitness is ≤ 0.5.

**Q.** For C30G U53C C55A U64A, which yeast fitness is on record?
**A.** The yeast fitness was ≤ 0.5.

**Q.** With C30U as the variant, how does the yeast fitness read?
**A.** The yeast fitness was 1.01.

**Q.** Which yeast fitness does the source give for C30U A36U G63A here?
**A.** Its yeast fitness is ≤ 0.5.

**Q.** Which yeast fitness does the source give for C30U A40C A42C C49U G68U here?
**A.** Its yeast fitness is ≤ 0.5.

**Q.** For C30U A40U C60U, which yeast fitness is on record?
**A.** Its yeast fitness is ≤ 0.5.

**Q.** For C30U A42G A45C, which yeast fitness is on record?
**A.** The yeast fitness was ≤ 0.5.

**Q.** Which yeast fitness does the source give for C30U A42U A43C A70C here?
**A.** Its yeast fitness is ≤ 0.5.

**Q.** With C30U A43C G52A G63A as the variant, how does the yeast fitness read?
**A.** Its yeast fitness is ≤ 0.5.

**Q.** Which yeast fitness does the source give for C30U A43G A45G here?
**A.** The yeast fitness was ≤ 0.5.

**Q.** For C30U A57C C66A, which yeast fitness is on record?
**A.** Its yeast fitness is ≤ 0.5.

**Q.** With C30U C34A A36U G67A as the variant, how does the yeast fitness read?
**A.** The yeast fitness was ≤ 0.5.

**Q.** Which yeast fitness does the source give for C30U C46A C66U here?
**A.** Its yeast fitness is 0.83.

**Q.** Which yeast fitness does the source give for C30U C49G G50C A65U here?
**A.** The yeast fitness was ≤ 0.5.

**Q.** For C30U C60U, which yeast fitness is on record?
**A.** Its yeast fitness is 0.734.

**Q.** Which yeast fitness does the source give for C30U C61U here?
**A.** The yeast fitness was 0.826.

**Q.** For C30U G38C C55G C61U, which yeast fitness is on record?
**A.** Its yeast fitness is ≤ 0.5.

**Q.** With C30U G44A A57U as the variant, how does the yeast fitness read?
**A.** Its yeast fitness is ≤ 0.5.

**Q.** For C30U G48C G67C, which yeast fitness is on record?
**A.** The yeast fitness was ≤ 0.5.

**Q.** Which yeast fitness does the source give for C30U U32C C55A G56A G67A here?
**A.** The yeast fitness was ≤ 0.5.

**Q.** Which yeast fitness does the source give for C30U U35C G52C C66G here?
**A.** The yeast fitness was ≤ 0.5.

**Q.** Which yeast fitness does the source give for C30U U47C U54A here?
**A.** The yeast fitness was ≤ 0.5.

**Q.** Which yeast fitness does the source give for C30U U47G here?
**A.** The yeast fitness was 0.588.

**Q.** For C31A A37G G38A A40G, which yeast fitness is on record?
**A.** Its yeast fitness is ≤ 0.5.

**Q.** With C31A A40U G52A C60U as the variant, how does the yeast fitness read?
**A.** Its yeast fitness is ≤ 0.5.

**Q.** Which yeast fitness does the source give for C31A A42G A43U G56C here?
**A.** The yeast fitness was ≤ 0.5.

**Q.** With C31A A45C G63C as the variant, how does the yeast fitness read?
**A.** Its yeast fitness is ≤ 0.5.

**Q.** For C31A A45C G67C G68A, which yeast fitness is on record?
**A.** Its yeast fitness is ≤ 0.5.

**Q.** Which yeast fitness does the source give for C31A A45C U47C C62U G63A U64A here?
**A.** The yeast fitness was ≤ 0.5.

**Q.** With C31A C33A as the variant, how does the yeast fitness read?
**A.** Its yeast fitness is 0.509.

**Q.** For C31A C33G A36U C60U U64G A65U A69C, which yeast fitness is on record?
**A.** Its yeast fitness is ≤ 0.5.

**Q.** With C31A C34A A70G as the variant, how does the yeast fitness read?
**A.** Its yeast fitness is ≤ 0.5.

**Q.** For C31A C49G A57U, which yeast fitness is on record?
**A.** Its yeast fitness is ≤ 0.5.

**Q.** Which yeast fitness does the source give for C31A G38A here?
**A.** Its yeast fitness is 0.792.

**Q.** For C31A G48A C66U, which yeast fitness is on record?
**A.** Its yeast fitness is 0.646.

**Q.** For C31A G50C A57U, which yeast fitness is on record?
**A.** The yeast fitness was ≤ 0.5.

**Q.** Which yeast fitness does the source give for C31G A36C C62U G68A A69C here?
**A.** Its yeast fitness is ≤ 0.5.

**Q.** For C31G A42C C55U G68A, which yeast fitness is on record?
**A.** Its yeast fitness is 0.542.

**Q.** With C31G A45G U47A as the variant, how does the yeast fitness read?
**A.** The yeast fitness was 0.893.

**Q.** With C31G A45U U47A G67A as the variant, how does the yeast fitness read?
**A.** Its yeast fitness is ≤ 0.5.

**Q.** With C31G A57G A65G A70G as the variant, how does the yeast fitness read?
**A.** The yeast fitness was ≤ 0.5.

**Q.** Which yeast fitness does the source give for C31G A57U G58C here?
**A.** The yeast fitness was ≤ 0.5.

**Q.** Which yeast fitness does the source give for C31G A70U here?
**A.** Its yeast fitness is 0.938.

**Q.** For C31G C34A C66A G67A A70G, which yeast fitness is on record?
**A.** The yeast fitness was ≤ 0.5.

**Q.** With C31G C34U G67C as the variant, how does the yeast fitness read?
**A.** The yeast fitness was ≤ 0.5.

**Q.** Which yeast fitness does the source give for C31G C46A G63C here?
**A.** The yeast fitness was ≤ 0.5.

**Q.** With C31G C49G U64C as the variant, how does the yeast fitness read?
**A.** The yeast fitness was ≤ 0.5.

**Q.** Which yeast fitness does the source give for C31G C55G A57C here?
**A.** Its yeast fitness is ≤ 0.5.

**Q.** With C31G C55U A69U as the variant, how does the yeast fitness read?
**A.** The yeast fitness was ≤ 0.5.

**Q.** With C31G C60U G63C as the variant, how does the yeast fitness read?
**A.** Its yeast fitness is ≤ 0.5.

**Q.** Which yeast fitness does the source give for C31G G51A A57C here?
**A.** Its yeast fitness is ≤ 0.5.

**Q.** For C31G G51C C62A, which yeast fitness is on record?
**A.** The yeast fitness was ≤ 0.5.

**Q.** For C31G G52U G56C, which yeast fitness is on record?
**A.** Its yeast fitness is ≤ 0.5.

**Q.** For C31G G56A, which yeast fitness is on record?
**A.** Its yeast fitness is 0.98.

**Q.** For C31G G56C C61G, which yeast fitness is on record?
**A.** The yeast fitness was ≤ 0.5.

**Q.** With C31G G58C as the variant, how does the yeast fitness read?
**A.** Its yeast fitness is 0.88.

**Q.** With C31G U32C G48C G50A A65U as the variant, how does the yeast fitness read?
**A.** The yeast fitness was ≤ 0.5.

**Q.** For C31U A36C, which yeast fitness is on record?
**A.** Its yeast fitness is 0.842.

**Q.** For C31U A37C A45C G56C, which yeast fitness is on record?
**A.** Its yeast fitness is ≤ 0.5.
